Assay results: PMC11665687
No constants are given. Whether binding was seen depends on the method and setting. Binding seen in cells or lysates may run through a third protein. Some binding calls cover weakened binding; strength is not graded here.

Chains of the proteins cited; added tags and fusions are not shown.
UniProt O14686: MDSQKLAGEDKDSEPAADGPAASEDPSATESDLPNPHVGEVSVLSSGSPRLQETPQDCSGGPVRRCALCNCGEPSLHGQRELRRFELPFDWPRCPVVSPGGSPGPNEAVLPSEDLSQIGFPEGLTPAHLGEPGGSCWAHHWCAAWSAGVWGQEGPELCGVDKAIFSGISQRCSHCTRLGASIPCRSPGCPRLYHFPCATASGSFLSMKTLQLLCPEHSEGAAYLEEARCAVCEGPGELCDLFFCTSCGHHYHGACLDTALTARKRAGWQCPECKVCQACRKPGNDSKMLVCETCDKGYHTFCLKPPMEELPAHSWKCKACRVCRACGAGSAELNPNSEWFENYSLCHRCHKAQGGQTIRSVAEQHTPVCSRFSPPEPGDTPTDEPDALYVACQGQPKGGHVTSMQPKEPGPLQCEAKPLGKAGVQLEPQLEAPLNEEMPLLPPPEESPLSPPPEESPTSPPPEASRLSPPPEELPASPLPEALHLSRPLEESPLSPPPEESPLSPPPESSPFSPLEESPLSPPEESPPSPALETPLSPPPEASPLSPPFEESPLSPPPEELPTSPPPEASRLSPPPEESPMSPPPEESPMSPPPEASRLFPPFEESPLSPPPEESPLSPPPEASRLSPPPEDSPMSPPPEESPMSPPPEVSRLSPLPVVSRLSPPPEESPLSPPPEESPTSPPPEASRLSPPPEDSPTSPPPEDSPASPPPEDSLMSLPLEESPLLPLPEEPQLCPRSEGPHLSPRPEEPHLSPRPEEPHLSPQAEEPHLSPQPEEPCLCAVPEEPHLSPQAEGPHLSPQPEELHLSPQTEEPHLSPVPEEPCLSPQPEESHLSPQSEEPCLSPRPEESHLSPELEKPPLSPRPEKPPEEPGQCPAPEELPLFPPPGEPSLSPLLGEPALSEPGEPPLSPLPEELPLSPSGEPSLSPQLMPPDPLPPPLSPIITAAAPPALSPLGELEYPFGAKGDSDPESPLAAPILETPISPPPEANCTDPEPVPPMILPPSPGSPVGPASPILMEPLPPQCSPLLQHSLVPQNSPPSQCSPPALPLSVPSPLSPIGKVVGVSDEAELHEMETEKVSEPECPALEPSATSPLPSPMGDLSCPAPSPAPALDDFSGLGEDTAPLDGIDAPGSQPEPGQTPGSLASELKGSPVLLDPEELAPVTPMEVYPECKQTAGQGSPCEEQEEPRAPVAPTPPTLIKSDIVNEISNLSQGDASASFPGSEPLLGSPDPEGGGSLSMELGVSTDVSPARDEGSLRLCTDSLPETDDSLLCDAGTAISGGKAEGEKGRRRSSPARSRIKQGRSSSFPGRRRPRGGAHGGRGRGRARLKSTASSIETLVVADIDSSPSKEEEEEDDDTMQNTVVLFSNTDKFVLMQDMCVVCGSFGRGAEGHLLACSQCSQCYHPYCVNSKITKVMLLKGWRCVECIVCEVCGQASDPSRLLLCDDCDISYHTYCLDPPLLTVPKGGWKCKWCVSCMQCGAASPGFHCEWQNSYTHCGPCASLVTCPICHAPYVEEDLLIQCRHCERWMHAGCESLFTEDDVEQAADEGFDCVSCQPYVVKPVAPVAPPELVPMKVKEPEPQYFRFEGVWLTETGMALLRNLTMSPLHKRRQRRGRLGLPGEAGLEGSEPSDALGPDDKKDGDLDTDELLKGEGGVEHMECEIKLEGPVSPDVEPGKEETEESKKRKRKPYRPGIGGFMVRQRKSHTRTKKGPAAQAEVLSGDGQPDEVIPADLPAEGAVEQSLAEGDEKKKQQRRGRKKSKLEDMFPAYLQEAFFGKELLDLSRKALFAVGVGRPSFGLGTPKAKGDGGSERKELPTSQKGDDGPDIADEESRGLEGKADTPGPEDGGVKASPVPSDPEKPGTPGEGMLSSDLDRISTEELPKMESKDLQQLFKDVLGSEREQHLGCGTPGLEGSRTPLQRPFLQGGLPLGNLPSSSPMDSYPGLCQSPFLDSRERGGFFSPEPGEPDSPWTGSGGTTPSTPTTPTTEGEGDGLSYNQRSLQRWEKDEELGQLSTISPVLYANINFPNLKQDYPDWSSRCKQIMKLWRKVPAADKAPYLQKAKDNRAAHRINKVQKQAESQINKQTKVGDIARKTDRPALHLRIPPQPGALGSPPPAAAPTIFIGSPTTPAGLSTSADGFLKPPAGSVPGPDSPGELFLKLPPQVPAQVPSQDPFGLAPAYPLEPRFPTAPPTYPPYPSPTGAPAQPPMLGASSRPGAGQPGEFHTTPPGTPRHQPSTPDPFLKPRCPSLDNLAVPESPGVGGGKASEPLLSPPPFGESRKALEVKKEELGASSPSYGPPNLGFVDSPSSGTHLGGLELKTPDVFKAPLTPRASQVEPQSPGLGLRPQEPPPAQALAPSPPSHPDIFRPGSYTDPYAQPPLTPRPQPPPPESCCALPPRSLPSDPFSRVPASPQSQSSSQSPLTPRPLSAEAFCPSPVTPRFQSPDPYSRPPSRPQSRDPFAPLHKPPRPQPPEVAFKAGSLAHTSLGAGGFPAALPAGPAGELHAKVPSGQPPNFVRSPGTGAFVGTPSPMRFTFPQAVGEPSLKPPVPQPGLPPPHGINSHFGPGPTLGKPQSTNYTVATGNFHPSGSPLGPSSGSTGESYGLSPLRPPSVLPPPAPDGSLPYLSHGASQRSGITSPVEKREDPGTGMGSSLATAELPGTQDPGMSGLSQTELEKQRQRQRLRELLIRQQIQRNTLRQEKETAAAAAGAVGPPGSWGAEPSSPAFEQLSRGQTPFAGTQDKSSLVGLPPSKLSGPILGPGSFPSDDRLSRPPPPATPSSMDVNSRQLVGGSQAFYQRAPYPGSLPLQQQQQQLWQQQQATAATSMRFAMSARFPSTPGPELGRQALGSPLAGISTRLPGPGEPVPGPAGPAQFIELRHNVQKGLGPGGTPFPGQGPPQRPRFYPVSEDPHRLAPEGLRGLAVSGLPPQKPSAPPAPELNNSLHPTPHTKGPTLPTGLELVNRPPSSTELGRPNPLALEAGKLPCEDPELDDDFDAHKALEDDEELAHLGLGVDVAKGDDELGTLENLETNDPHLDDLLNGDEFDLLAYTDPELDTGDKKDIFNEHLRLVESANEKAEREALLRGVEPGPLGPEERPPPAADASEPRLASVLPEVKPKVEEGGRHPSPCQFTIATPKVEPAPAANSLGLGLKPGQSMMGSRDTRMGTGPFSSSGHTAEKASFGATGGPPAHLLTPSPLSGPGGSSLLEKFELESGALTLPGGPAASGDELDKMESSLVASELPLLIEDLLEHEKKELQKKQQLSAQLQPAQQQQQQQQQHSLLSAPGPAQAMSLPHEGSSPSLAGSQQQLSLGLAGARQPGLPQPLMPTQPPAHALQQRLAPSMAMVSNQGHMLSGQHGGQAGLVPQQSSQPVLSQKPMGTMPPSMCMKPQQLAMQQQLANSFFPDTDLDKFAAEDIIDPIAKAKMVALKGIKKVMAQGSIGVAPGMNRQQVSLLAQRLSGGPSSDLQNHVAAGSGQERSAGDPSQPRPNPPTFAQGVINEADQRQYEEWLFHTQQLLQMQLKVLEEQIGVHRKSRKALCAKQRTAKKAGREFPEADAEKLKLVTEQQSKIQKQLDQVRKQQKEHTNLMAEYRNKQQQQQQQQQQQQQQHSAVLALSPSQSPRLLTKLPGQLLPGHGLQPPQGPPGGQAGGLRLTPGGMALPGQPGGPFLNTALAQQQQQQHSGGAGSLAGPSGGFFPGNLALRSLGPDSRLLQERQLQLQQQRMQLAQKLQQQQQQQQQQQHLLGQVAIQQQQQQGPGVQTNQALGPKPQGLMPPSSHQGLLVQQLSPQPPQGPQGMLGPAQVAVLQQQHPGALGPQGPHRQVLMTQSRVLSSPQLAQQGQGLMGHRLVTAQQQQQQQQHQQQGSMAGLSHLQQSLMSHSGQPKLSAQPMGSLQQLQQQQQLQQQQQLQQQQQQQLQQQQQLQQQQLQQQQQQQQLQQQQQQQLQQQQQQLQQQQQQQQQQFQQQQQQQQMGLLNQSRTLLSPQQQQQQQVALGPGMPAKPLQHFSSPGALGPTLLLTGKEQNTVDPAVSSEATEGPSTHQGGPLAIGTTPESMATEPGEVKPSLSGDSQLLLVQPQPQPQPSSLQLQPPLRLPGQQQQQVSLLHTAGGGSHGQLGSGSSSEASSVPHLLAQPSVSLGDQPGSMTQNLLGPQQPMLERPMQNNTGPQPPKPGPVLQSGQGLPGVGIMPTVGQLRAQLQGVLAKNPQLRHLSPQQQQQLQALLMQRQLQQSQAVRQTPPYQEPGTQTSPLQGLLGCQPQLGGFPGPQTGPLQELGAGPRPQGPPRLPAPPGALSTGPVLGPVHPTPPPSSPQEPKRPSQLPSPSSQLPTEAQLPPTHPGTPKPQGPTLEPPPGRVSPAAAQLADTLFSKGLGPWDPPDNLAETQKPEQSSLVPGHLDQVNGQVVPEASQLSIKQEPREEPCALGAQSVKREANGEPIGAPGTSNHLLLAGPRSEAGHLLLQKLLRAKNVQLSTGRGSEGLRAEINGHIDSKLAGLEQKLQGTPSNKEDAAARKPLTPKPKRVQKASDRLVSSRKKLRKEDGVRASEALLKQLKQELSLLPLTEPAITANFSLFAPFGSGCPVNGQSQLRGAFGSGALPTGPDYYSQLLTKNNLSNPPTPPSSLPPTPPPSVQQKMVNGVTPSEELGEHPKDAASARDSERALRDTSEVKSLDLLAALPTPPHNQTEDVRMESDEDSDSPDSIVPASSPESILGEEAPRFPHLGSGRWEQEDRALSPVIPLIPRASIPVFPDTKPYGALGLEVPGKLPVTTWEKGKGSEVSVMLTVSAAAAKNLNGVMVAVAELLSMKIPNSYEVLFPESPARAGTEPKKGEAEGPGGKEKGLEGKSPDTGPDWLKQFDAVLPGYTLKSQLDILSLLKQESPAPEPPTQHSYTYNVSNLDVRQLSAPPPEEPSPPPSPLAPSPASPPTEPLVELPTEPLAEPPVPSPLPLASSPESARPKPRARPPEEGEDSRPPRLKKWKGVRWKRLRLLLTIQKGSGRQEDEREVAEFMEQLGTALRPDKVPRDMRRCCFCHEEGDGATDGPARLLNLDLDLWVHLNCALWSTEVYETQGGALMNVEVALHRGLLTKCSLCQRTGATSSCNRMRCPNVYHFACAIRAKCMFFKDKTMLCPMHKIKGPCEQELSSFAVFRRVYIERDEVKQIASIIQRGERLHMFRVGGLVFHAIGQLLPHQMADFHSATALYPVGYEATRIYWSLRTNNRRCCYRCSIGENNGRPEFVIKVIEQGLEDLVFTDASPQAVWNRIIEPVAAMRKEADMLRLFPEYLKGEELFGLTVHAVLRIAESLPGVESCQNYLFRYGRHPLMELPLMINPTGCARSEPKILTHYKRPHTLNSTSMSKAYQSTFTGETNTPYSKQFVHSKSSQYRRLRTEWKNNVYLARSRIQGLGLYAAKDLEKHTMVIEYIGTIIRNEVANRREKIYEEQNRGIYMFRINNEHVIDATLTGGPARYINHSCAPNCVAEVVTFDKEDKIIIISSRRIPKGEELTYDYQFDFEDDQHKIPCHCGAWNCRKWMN
UniProt Q04207: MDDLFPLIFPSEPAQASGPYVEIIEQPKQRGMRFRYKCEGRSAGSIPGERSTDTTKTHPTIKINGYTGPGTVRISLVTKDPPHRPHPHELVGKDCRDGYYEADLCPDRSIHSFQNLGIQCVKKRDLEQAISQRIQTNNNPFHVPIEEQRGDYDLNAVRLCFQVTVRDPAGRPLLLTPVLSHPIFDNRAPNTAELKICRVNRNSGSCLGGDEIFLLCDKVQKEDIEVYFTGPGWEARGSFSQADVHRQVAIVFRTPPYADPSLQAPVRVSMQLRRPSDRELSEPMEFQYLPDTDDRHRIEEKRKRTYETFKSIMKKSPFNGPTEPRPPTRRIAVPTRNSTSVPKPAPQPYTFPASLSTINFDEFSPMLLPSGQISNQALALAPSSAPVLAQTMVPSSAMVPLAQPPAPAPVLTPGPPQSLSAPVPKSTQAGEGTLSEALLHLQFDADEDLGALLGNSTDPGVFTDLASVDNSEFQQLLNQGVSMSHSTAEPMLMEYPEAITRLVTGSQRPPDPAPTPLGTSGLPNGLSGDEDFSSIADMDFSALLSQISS

Target: MLL4 (histone H3 lysine 4 methyltransferase) (human (endogenous in HepG2)) (UniProt O14686)
Test: co-IP; HepG2 cells transfected with Flag-p65, with or without LPS (100 ng/ml, 2 h); lysis buffer with 150 mM NaCl, 0.5% NP-40; IP with home-made anti-MLL4 antibody and protein A-agarose; blot with anti-p65

In the case of “Flag-tagged mouse p65 (from UniProt Q04207 1-549)”, the binding is reported as “binds”.
